Laboratory results published in PMC5080453.

Protein sequences, listed by entry. Tags and fused reporters are not part of them. Lines headed by an entry give the natural chain unless they say otherwise; changes in a name come on top.
UniProt P13497: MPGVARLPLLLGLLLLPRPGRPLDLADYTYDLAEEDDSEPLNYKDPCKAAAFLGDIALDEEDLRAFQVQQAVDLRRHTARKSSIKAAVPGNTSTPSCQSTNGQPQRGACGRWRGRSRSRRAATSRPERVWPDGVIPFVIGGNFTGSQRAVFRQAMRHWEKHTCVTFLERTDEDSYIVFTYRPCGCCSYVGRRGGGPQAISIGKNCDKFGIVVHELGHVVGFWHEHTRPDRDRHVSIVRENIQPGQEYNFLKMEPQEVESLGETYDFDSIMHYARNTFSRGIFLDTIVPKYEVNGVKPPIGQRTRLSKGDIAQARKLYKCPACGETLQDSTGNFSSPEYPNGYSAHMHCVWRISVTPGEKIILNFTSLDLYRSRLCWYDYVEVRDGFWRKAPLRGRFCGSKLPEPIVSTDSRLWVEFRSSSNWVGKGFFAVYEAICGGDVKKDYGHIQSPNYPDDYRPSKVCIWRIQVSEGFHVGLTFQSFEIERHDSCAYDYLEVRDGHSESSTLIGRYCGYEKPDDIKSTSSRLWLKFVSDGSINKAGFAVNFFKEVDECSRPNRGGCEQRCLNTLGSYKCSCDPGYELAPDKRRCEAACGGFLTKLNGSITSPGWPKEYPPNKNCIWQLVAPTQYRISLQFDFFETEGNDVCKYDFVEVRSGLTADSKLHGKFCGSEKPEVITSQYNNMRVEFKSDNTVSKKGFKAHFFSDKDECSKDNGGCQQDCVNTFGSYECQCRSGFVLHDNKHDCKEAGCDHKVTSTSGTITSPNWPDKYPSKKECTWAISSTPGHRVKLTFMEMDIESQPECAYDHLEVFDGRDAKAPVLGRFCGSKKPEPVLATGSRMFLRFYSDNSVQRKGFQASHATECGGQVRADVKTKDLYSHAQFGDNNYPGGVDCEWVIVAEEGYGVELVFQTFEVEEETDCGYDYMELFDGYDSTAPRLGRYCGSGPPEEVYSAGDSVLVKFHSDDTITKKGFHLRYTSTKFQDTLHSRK
UniProt Q9H2X0: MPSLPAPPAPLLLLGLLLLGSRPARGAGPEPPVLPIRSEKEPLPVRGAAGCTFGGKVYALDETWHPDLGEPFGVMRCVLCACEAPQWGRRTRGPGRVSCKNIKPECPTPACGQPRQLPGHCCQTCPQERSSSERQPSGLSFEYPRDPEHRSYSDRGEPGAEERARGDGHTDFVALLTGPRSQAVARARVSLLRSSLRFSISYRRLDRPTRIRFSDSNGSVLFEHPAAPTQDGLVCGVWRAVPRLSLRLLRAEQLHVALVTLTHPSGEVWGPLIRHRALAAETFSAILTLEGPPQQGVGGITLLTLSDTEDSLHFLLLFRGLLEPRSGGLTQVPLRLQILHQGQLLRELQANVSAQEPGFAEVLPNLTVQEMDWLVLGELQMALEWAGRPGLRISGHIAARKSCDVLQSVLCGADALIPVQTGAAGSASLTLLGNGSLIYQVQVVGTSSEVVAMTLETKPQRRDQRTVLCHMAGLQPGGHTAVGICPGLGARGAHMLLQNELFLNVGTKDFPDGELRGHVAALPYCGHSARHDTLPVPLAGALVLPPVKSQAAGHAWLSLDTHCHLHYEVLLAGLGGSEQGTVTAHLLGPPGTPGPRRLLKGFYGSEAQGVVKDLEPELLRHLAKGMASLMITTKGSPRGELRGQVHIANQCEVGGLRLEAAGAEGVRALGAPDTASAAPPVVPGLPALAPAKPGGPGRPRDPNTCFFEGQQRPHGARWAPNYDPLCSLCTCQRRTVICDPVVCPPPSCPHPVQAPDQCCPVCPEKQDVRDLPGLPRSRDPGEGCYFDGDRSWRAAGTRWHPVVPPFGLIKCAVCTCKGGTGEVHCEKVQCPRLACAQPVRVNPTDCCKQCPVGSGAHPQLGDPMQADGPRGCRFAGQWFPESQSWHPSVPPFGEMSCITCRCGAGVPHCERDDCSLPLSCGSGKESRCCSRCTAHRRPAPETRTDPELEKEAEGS

What was measured:
[1] = target: T1, human twisted gastrulation (Tsg), native (glycosylated) (human) (UniProt Q9GZX9); assay: SPR; Biacore T200, CM5 chip; 830 RU of Tsg immobilised by amine coupling; 500 nM mTlD or 500 nM mTlDC4C5 injected; 25 °C, 10 mM Hepes, 150 mM NaCl, 3 mM EDTA, 0.005% Tween-20, pH 7.4, 30 μl/min; both purified
T1 sequence (chain, N-linked glycans (three predicted N-linked glycosylation sites)): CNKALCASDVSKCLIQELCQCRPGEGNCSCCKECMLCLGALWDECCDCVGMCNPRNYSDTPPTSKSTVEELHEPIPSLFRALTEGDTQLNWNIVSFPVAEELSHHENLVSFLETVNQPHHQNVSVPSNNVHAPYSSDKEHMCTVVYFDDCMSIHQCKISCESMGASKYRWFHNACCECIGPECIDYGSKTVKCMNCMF

mammalian tolloid (mTld) = mammalian tolloid (mTld) (UniProt P13497); assay: SPR; Biacore T200, CM5 chip; 2400 RU of mTlD immobilised by amine coupling; 500 nM Tsg or 500 nM ΔN-chordin injected; 25 °C, 10 mM Hepes, 150 mM NaCl, 3 mM EDTA, 0.005% Tween-20, pH 7.4, 30 μl/min; both purified

Substance | binding [1] | binding (mammalian tolloid (mTld))
mammalian tolloid (mTld) (from UniProt P13497) (enzyme) | no binding (tested: 500 nM) | 
ΔN-chordin (human chordin construct lacking the N-terminal part) (from UniProt Q9H2X0) (domain or fragment) |  | binds

These are yes or no findings as the source states them, for the method shown. For some assays here: Binding can be weak; no strength is given.
